Changes are numbered by the printed parent chain. These are yes or no findings as the source states them, for the method shown. Some results given as binding are weak or reduced against the parent protein; the word gives no strength.
B1: DARPin F1 (designed binder)
chain: DLGKKLLEAARAGEDDEVRVLMANGADVNAKDEYGLAPLYHATAHGHLEIVEVLLKNGADVNAVDAIGFTPLHLAAFIGHLEIAEVLLRHGADVNAQDKFGKTAFDISIDNVNEDLAEILQKL
notes: source: E. coli M15 (pQE30), purified (His trap; SEC on Superdex 75 for large scale); not shown: His6, N-terminal, kept
B2: DARPin F3 (designed binder)
chain: B1 chain with E14Q, V20I, N24I, Y34C, A37T, H41L, A84V, R89K, D110G, V112G
B3: DARPin C3 (designed binder)
chain: B1 chain with E14Q, V20I, A37T, H41L, A44T, E49G, A84V, R89K, K102N, V112G
B4: DARPin A1 (designed binder)
chain: DLGKKLLEAVRAGQGDEVRILMANGADVNAKDEYGLTPLHLATAHGHLEIVEVLLKNGADVNAADAIGFTPLHLAAFIGHLEIVEVLLKHGADVNAQDRFGKTAFDISIGNGNEDLAEILQKL
B5: DARPin D4 (designed binder)
chain: B4 chain with V10A, G13R, G15D, A64V, R99K, G110D, G112V
B6: DARPin C4 (designed binder)
chain: DLGKKLLGAARAGQDDEVRILMADGADVNAKDEYGLTPLQLAAAHGHLEIVEVLLKNGADVNAVDAIGFTPLHLATFIGHLEIVEVLLKHGADANAQDKFGKAAFDISIDNGNGDLAEILQKL
B7: DARPin B3 (designed binder)
chain: B4 chain with V10A, G15D, G25D, H40Q, T43A, A64M, A92V, R99K

target: HER2 on SK-BR-3 cells (human (endogenous in SK-BR-3)) (UniProt P04626); assay: flow cytometry on cells; SK-BR-3 cells incubated with purified DARPins (1 ug/ml, 1 h, room temperature); detected with anti-His antibody and PE-conjugated secondary antibody; only the binder purified

binding, binds:
B1
B2
B3
B4
B5
B6
B7

Reference: paper PMC4550541 (Protein Engineering, Design and Selection, 2015)
